No constants are given. Whether binding was seen depends on the method and setting. In cells and extracts the contact can be indirect. Some entries that bind do so weakly or less than the wild type. Values belong to the substance of their own block, whether it stands above or below them.
Key:
Test in all cases: co-IP; miniaturized sandwich immunoassay platform (MSIP): lysate of co-transfected HEK293 cells (EBC buffer) incubated at room temperature on aldehyde slides spotted with anti-FLAG antibody; FLAG-bait captured, myc-prey detected with anti-myc-Cy3 (1:200); read-out net fluorescence intensity (NFI) after subtraction of murine IgG spots and of the control without bait
c-Jun = c-Jun (UniProt P05412)
MafK = MafK (UniProt O60675)
NF-κB1 = NF-κB1 (UniProt P19838)

Amino acid sequences for entries named in this document (tags omitted).
UniProt P05412: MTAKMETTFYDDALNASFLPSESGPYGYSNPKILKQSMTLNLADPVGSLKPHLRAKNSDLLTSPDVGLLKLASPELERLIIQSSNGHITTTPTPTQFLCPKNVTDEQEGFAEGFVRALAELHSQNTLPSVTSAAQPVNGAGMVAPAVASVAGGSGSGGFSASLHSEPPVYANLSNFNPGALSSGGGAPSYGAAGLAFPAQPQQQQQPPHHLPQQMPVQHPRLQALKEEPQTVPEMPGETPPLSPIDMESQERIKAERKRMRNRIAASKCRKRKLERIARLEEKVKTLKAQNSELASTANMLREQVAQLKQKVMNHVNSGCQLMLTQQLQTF
UniProt O60675: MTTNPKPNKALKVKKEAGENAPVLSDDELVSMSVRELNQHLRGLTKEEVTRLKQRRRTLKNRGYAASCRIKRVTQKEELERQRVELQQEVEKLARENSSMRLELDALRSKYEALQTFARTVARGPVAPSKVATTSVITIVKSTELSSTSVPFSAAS
UniProt P19838: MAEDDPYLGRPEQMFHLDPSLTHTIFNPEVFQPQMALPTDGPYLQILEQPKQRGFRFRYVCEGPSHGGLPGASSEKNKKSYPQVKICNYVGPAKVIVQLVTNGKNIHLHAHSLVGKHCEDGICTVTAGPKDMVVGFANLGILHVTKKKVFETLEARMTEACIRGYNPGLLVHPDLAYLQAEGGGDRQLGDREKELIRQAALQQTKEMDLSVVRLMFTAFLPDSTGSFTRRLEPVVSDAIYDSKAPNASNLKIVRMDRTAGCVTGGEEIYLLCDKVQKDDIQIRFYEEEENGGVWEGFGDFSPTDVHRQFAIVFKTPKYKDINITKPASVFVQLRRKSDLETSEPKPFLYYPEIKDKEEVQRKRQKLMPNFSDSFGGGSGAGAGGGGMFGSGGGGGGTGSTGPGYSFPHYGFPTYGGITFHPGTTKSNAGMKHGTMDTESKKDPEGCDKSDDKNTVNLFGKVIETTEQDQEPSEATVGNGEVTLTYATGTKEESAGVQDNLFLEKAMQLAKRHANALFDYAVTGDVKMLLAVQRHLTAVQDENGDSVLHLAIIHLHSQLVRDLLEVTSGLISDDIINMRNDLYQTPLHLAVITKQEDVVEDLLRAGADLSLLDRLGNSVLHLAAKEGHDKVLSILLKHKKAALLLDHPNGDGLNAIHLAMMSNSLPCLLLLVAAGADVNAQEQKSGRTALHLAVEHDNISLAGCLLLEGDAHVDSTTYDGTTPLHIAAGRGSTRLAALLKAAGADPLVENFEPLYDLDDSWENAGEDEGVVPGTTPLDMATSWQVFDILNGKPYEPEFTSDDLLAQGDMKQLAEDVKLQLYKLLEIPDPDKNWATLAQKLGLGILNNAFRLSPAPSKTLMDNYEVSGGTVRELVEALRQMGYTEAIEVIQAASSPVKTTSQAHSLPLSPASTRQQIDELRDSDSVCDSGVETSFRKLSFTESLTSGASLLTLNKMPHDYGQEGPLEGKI
UniProt Q53GL0: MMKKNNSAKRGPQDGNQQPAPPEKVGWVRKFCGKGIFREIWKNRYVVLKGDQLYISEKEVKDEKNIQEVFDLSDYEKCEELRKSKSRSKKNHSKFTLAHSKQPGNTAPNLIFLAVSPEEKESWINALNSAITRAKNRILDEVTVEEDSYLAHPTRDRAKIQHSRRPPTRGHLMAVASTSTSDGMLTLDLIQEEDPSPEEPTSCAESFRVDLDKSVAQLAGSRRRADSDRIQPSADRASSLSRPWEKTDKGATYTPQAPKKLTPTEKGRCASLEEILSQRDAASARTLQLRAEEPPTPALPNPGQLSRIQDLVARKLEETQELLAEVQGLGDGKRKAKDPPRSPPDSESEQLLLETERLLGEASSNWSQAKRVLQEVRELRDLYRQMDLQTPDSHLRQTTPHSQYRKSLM
UniProt Q16236: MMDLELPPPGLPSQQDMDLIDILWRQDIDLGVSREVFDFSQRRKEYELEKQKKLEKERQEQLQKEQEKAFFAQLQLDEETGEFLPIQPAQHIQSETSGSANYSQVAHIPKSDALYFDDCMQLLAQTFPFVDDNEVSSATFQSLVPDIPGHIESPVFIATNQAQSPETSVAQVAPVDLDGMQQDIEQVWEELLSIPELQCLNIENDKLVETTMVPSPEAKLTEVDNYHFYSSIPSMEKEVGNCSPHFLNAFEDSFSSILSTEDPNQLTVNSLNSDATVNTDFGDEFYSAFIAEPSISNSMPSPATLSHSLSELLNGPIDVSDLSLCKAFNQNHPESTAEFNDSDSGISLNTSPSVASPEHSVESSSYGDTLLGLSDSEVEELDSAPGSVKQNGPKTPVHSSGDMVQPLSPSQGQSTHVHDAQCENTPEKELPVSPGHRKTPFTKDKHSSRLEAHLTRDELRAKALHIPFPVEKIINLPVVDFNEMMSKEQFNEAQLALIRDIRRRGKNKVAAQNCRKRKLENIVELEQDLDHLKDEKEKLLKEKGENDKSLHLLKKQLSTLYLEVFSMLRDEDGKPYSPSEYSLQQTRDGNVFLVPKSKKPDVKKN
UniProt Q04206: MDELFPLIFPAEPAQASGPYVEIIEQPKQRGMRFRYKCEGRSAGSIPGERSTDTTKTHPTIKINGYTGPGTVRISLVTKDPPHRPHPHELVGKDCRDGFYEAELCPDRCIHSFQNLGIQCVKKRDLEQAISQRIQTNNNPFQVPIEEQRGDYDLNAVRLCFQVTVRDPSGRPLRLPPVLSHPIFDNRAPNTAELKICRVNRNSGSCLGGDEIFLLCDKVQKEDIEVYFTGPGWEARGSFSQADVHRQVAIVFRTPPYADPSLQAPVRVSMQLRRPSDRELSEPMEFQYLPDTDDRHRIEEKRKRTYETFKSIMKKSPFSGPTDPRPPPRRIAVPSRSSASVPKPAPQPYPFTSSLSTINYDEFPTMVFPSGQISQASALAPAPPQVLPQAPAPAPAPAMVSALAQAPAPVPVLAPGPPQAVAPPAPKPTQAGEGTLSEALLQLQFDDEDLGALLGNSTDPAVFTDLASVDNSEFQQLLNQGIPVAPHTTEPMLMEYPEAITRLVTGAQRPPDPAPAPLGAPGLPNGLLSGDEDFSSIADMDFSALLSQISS

binding (c-Jun): binds
Substance: CKIP-1 (from UniProt Q53GL0 1-409)

binding (MafK): binds
Substance: Nrf2 (from UniProt Q16236 1-605)

binding (NF-κB1): binds
Substance: RelA (from UniProt Q04206 1-551)

— PMC2978116
